Laboratory results from the supplement of paper PMC11732987, “Enantioselective OTUD7B fragment discovery through chemoproteomics screening and high-throughput optimisation” (Communications Chemistry, 2025).
The list shows a part of the results. The data scatter; read single values as rough.

Chains of the proteins cited; added tags and fusions are not shown. Lines headed by an entry give the natural chain unless they say otherwise; changes in a name come on top.
UniProt O94851: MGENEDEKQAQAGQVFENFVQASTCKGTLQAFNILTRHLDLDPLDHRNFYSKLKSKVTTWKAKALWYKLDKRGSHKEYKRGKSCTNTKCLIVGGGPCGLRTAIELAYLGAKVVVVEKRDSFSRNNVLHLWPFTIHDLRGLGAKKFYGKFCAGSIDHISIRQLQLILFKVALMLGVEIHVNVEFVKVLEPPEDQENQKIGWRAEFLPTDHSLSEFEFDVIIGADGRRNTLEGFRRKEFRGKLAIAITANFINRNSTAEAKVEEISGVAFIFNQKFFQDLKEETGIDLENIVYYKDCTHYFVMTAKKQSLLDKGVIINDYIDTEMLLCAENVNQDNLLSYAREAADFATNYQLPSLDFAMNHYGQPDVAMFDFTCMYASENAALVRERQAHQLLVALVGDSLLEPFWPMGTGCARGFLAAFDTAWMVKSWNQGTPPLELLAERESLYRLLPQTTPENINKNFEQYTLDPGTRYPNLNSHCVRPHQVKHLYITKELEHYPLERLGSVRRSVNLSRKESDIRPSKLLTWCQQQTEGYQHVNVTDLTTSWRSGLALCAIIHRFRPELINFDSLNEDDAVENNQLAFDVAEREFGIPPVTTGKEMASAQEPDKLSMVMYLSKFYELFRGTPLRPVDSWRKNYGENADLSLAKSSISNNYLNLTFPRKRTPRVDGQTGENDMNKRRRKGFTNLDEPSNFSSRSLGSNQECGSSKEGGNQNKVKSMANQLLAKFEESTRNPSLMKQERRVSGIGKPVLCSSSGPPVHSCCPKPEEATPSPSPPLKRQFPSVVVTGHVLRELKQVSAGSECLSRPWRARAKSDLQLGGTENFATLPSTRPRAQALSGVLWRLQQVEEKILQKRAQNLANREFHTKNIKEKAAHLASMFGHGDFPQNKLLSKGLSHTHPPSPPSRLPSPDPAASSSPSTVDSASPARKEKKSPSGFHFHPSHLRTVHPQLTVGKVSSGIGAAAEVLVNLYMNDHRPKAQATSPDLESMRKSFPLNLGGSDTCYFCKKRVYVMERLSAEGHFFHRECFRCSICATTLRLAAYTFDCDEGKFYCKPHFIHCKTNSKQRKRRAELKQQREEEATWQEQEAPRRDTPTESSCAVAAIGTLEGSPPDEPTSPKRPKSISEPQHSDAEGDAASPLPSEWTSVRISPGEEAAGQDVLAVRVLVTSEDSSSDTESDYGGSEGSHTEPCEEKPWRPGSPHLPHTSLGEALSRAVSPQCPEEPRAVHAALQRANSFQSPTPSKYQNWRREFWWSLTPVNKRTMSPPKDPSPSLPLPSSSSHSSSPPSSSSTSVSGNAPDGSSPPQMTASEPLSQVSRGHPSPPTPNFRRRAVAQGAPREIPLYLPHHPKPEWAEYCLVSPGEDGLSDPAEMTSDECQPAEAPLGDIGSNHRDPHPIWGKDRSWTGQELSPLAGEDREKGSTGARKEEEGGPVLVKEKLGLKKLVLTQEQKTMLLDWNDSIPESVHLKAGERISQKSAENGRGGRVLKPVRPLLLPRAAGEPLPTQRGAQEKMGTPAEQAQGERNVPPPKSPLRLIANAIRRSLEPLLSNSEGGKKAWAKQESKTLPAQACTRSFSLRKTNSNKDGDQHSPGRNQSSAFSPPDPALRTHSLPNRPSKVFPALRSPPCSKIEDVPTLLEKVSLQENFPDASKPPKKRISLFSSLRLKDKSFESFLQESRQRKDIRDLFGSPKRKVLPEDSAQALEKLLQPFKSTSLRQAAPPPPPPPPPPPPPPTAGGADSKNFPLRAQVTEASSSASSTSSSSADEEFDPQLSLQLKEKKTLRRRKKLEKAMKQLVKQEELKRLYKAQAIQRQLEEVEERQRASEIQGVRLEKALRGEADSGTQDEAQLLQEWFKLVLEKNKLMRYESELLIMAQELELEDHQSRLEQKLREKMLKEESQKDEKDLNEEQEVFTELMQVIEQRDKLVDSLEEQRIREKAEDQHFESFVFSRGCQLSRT
UniProt Q9UHV7: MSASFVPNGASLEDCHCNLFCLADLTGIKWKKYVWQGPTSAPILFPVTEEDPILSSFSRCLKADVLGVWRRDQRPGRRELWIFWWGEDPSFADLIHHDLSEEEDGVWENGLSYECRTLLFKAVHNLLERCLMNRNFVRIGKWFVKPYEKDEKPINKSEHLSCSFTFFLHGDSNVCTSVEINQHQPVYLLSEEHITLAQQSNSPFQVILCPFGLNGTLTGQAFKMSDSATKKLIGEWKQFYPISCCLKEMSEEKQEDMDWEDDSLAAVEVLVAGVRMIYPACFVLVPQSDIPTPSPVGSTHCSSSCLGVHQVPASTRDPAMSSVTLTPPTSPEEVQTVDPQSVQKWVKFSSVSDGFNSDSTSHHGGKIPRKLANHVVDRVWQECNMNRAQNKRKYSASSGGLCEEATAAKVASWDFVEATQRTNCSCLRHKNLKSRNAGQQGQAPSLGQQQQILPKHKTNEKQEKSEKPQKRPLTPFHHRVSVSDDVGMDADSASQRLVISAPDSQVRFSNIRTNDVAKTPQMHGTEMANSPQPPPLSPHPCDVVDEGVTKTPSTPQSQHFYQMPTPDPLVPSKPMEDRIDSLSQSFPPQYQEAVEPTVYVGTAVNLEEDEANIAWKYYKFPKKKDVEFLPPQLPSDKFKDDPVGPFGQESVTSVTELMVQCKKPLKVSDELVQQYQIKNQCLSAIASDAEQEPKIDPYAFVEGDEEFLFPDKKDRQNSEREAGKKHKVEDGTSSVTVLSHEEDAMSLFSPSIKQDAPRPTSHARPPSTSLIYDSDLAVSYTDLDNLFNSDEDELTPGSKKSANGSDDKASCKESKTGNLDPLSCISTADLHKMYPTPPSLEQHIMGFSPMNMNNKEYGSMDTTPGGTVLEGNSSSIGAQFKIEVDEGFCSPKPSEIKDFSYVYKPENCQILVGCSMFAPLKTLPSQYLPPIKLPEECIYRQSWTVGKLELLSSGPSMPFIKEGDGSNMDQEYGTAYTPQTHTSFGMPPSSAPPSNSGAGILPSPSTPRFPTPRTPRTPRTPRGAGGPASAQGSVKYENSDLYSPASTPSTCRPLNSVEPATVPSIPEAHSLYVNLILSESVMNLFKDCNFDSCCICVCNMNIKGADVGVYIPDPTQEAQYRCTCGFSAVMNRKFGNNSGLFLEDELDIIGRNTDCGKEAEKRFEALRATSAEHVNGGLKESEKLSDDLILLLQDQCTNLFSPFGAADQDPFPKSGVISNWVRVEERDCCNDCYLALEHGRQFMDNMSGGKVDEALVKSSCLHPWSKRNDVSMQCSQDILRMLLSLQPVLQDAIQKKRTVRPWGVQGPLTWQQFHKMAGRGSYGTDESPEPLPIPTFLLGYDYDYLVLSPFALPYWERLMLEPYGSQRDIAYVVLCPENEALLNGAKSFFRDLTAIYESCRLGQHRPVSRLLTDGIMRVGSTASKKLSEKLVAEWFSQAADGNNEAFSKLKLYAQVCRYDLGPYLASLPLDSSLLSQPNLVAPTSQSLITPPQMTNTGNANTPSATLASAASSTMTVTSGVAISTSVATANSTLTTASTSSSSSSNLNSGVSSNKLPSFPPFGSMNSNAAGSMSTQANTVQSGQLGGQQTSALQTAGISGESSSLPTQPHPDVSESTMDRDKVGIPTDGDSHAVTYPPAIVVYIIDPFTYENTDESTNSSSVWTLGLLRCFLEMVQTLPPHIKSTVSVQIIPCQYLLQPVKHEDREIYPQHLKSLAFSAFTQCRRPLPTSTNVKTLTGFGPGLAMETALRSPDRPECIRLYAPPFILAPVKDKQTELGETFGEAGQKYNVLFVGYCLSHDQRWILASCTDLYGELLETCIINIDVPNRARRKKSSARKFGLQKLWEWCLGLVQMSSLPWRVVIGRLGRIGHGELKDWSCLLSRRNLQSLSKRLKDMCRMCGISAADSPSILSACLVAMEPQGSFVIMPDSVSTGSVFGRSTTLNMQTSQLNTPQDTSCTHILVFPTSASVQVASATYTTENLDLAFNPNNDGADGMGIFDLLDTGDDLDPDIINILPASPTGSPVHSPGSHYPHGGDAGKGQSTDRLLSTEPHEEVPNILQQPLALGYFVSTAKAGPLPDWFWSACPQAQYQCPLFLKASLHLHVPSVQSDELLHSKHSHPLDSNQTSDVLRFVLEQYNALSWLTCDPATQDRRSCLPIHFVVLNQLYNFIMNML
UniProt Q7Z3U7: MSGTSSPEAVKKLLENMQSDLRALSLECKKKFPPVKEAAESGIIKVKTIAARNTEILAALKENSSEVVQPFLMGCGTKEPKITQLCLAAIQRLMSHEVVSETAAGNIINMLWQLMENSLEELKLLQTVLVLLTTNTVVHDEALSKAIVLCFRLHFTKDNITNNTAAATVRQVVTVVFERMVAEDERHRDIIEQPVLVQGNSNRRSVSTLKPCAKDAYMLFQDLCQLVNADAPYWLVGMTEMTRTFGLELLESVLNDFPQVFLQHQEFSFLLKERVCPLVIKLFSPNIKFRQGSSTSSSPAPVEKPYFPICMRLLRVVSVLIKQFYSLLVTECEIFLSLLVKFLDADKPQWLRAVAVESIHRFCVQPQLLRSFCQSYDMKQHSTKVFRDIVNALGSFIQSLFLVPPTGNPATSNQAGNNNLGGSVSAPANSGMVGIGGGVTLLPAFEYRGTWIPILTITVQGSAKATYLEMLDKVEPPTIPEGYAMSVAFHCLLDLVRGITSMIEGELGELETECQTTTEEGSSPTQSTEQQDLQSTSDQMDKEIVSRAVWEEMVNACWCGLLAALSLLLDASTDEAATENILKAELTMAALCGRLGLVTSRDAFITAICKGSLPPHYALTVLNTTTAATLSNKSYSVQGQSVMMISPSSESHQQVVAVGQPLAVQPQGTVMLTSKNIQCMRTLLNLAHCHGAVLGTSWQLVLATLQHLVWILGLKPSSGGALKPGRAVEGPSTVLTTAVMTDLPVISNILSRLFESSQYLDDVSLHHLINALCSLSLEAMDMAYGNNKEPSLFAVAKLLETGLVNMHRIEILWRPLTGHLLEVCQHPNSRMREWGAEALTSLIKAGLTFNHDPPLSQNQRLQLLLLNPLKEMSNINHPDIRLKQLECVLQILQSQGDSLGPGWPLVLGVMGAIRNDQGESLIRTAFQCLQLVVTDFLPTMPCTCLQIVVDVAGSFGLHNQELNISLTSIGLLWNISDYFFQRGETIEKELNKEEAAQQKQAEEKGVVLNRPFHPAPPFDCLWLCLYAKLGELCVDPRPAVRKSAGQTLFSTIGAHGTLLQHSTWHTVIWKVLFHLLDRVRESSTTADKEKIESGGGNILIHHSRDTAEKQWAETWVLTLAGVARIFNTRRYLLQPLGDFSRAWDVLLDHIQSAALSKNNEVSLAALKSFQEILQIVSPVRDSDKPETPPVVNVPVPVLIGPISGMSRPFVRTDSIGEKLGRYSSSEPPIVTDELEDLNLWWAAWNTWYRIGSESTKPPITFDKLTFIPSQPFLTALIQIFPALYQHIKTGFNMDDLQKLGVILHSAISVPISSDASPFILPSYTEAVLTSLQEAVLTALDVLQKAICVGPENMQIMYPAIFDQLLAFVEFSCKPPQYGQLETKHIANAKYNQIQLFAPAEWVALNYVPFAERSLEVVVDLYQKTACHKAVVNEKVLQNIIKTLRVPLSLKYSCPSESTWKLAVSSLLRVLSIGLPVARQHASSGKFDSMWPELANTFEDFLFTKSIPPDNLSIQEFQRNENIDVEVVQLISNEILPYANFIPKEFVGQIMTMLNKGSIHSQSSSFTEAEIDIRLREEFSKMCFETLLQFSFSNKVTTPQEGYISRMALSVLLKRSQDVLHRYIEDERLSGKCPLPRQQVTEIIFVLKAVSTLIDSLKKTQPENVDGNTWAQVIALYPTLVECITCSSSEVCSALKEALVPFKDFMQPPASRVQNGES
UniProt O95822: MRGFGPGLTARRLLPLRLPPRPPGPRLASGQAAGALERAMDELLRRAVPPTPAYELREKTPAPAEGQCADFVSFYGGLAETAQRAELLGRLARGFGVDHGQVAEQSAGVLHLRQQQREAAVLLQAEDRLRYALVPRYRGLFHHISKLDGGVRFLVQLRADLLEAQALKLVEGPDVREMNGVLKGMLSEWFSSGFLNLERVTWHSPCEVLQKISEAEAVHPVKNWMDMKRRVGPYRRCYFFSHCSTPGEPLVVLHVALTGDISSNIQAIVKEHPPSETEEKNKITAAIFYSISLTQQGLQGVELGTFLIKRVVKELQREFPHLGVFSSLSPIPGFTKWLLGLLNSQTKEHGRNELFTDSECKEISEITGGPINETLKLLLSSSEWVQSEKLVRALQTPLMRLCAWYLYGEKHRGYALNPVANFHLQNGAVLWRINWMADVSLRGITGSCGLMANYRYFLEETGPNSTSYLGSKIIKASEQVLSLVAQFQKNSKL

Tests used:
[1] = compound: ClCC(=O)N[C@@H]1CCCc2ccccc12; experiment: log2 mean competition ratio of IA-DTB cysteine labelling (DMSO/compound) (log2 ratio); higher = stronger cysteine engagement by compound; settings: treatment time: 4 h, cell line lysate: HEK293T
Experimental: (§1)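 IA-DTB competitive cysteine chemoproteomics in HEK293T RIPA lysate. Lysates were treated with compound 29 or 30 at 50 or 200 µM for 4 h, then IA-DTB (500 µM, 1 h), trypsin-digested, NeutrAvidin-enriched and analysed by diaPASEF. Competition ratio = intensity DMSO / intensity compound (n=4 treated, n=64 DMSO); binding: mean log2 CR ≥ 1 and p ≤ 0.05 plus QC filters. Target is the cysteine site.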

[2] = compound: ClCC(=O)N[C@H]1CCCc2ccccc12; experiment: as above; settings: treatment time: 4 h, cell line lysate: HEK293T
Experimental: as §1

Target | log2 mean competition ratio ([1]; 50 µM) | log2 mean competition ratio ([1]; 200 µM) | log2 mean competition ratio ([2]; 50 µM) | log2 mean competition ratio ([2]; 200 µM)
MICAL2 C703 (UniProt O94851) | 0.0315 | -0.0326 | 0.183 | 0.159
MED13 C1375 (UniProt Q9UHV7) | -0.519 | -0.145 | -0.372 | -0.0434
METTL16 C432 (UniProt Q86W50) | -0.0623 | 0.265 | -0.233 | 0.142
MLLT3 C5 | 0.198 | -0.474 | 0.00907 | 0.0097
MON2 C373 (UniProt Q7Z3U7) | 0.158 | -0.0166 | -0.341 | -0.0859
MORC3 C307 (UniProt Q14149) | 0.166 | 0.0609 | 0.0935 | 0.0273
MMS19 C361 (UniProt Q96T76) | 0.231 | -0.0954 | 0.128 | -0.219
MID1 C248 (UniProt O15344) | 0.342 | -0.202 | -0.0169 | -0.333
MED16 C267 (UniProt Q9Y2X0) | -0.035 | 0.117 | 0.0114 | 0.0623
METTL3 C294 (UniProt Q86U44) | -0.277 | 0.167 | -0.226 | 0.25
MLYCD C360 (UniProt O95822) | -0.142 | 0.00544 | -0.22 | 0.0327
MORC3 C851 (UniProt Q14149) | 0.0432 | -0.00445 | -0.474 | 0.289
MRM3 C309 (UniProt Q9HC36) | -0.114 | 0.358 | 0.0308 | 0.391
